The source of these data is article PMC5703867.

These are yes or no findings as the source states them, for the method shown.

This experiment addresses CXCL8 (human). Kind of experiment: ELISA; chemokines coated at 150 ng/well in 0.1 M carbonate pH 9.5, 4% BSA block, BKT130Fc at 0, 1, 10 and 50 µg/ml for 2 h at RT, detected with goat anti-human IgG HRP, O.D. 450 nm.

Take SIPSHSIHSAKAGGGSKG (Fc fusion) [BKT130Fc peptibody]: the binding result is on record as “no binding (tested: 50 µg/ml)”.
